From US6900195B2, “Manzamines for treatment of drug resistant infection” (The University of Mississippi, priority 2000, dated 2005)
Some results were stated once for a whole list of compounds, not compound by compound.

Tested on: P. berghei
Test: In vivo antimalarial activity in P. berghei-infected mice
Set-up: species or system Plasmodium berghei
Conditions: same dosage (single 100 μmoles/kg)
Procedure: In Vivo Evaluation of Antimalarial Activity. (National University of Singapore by Dr. Kenny Ang, confirmation of activity at the WHO). Four-week-old, male Swiss albino mice are injected intraperitoneally with 10^7 P. berghei-infected mouse erythrocytes. On day 2 after infection, mice are treated with a single intraperitoneal injection of either the test compound or a reference drug (chloroquine or artemisinin) within a concentration range of 50 to 1,000 μmol/kg of body weight. All test compounds and reference drugs were injected as a suspension in 5% Tween 60 saline. For oral administration, the test compounds are given as a suspension in corn oil, and mice are given two consecutive doses of test compound at 100 μmol/kg on days 2 and 3 after infection. […] Survival of mice was recorded daily. Percent parasitemia is determined microscopically (magnification, ×1,000) from mouse-tail blood smears that were fixed with methanol and stained with Giemsa stain. […] Manzamine in plasma was detected by liquid chromatography=selected reaction monitoring-mass spectrometry (LC-SRM-MS). […] Manzamine can be detected by monitoring the transition of the protonated manzamine precursor ion from the (M+H)^+ to the (M+H —H2O)^+. Peak areas for the product ion chromatograms are integrated, and concentrations are determined from a linear calibration curve for manzamine in spiked plasma. […]

CCN(CC)CCCC(C)Nc1ccnc2cc(Cl)ccc12 (stereo not shown) [Chloroquine, chloroquine, reference compound]
life expectancy: 2 to 6 days
